Results reported in US7378078B2, “Compositions and methods for detecting proteolytic activity” (The Regents of the University of Michigan, priority 2000, dated 2008).
At least one structure is not confirmed: it was looked up by name or label, or the drawing left a doubt.

System: intracerebral 9L luciferase-expressing tumors
Conditions: rat, intracerebral 9L luciferase-expressing tumor, BCNU at time zero

## O=NN(CCCl)C(=O)NCCCl [BCNU, bischloroethylnitrosourea]
  photon counts (BLI) after BCNU treatment: decline in both parameters over time
  tumor volume (MRI) after BCNU treatment: decline in both parameters over time
